Source: patent publication US8420777B2, “Compounds that inhibit Hsp90 protein-protein interactions with IAP proteins” (University of Massachusetts, priority 2004, dated 2013)

System: HeLa cells
Assay: Internalization of cell permeable peptides, streptavidin-PE fluorescence microscopy
Format: cell-based, Human
Details: 150 μM, 6 hours; for internalization into cells: 37° C.

Sequence | intracellular penetration efficiency (fluorescence of 25 individual cells) | internalization into cells
RQIKIWFQNRRMKWKKKHSSGCAFL (Synthetically generated peptide) [P31] | indistinguishable penetration efficiency | efficient internalization
RQIKIWFQNRRMKWKKSKLACFSHG (Synthetically generated peptide) [P33, reference compound] | indistinguishable penetration efficiency | efficient internalization
